Test results reported in PMC7324386.
Results are given in words; binding and its absence hold for the method and conditions named. In cells and extracts the contact can be indirect. Here binding means that the protein was enriched with, or labelled near, the bait; the list need not be complete. For some of these results: A no says only that the protein was not detected with the bait. For some of these results: Where a sequence is shown, tags or fusion partners need not be part of it. Blank lines part the entries; values can stand above or below the binder they belong to.

Columns and labels:
Assay in all cases: proximity labelling; BioID2-tagged bait in 10-day-old transgenic Arabidopsis seedlings, 50 µM biotin for 16 h at room temperature, streptavidin-coated beads, label-free quantitative MS, ratiometric analysis against controls; the SUN1 bait also with MG132 treatment
[1] = biological target: T1, HA-BioID2-SUN1 (Arabidopsis thaliana) (UniProt Q9FF75)
T1 sequence: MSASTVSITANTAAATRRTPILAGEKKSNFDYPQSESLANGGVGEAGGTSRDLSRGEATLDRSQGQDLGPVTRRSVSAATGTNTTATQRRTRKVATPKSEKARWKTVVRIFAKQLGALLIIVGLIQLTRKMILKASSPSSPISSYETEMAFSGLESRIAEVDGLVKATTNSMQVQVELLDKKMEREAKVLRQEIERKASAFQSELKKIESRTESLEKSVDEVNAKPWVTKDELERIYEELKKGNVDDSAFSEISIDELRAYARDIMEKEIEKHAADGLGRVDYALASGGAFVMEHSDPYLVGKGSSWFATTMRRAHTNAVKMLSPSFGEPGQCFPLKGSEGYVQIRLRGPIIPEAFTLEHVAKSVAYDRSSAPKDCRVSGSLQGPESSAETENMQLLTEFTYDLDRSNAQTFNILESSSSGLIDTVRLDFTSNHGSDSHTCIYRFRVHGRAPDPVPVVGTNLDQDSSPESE

[2] = biological target: T2, PUX5-BioID2-HA (Arabidopsis thaliana) (UniProt Q7Y175)
T2 sequence: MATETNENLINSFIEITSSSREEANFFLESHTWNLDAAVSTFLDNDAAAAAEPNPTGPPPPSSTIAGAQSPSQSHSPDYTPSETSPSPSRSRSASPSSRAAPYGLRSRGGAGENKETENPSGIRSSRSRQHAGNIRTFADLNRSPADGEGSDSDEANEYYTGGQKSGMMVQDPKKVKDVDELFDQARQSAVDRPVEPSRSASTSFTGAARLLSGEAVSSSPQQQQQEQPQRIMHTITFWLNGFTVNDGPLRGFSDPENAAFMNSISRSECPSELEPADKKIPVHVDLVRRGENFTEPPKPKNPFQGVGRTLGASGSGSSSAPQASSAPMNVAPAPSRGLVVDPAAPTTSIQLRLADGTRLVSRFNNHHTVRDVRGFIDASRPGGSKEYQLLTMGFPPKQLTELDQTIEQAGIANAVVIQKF

[3] = biological target: T3, BioID2-NEAP1 (Arabidopsis thaliana) (UniProt Q9M9L3)
T3 sequence: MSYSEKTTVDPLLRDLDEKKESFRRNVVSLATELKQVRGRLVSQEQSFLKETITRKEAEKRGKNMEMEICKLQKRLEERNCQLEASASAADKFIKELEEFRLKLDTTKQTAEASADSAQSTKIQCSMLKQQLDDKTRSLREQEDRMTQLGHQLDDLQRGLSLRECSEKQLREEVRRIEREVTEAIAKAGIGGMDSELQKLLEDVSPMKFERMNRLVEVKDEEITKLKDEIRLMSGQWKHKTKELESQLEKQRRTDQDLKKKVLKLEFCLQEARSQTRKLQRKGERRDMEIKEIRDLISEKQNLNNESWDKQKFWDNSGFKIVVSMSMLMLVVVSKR

[4] = biological target: T4, BioID2-WIP1 (Arabidopsis thaliana) (UniProt Q8GXA4)
T4 sequence: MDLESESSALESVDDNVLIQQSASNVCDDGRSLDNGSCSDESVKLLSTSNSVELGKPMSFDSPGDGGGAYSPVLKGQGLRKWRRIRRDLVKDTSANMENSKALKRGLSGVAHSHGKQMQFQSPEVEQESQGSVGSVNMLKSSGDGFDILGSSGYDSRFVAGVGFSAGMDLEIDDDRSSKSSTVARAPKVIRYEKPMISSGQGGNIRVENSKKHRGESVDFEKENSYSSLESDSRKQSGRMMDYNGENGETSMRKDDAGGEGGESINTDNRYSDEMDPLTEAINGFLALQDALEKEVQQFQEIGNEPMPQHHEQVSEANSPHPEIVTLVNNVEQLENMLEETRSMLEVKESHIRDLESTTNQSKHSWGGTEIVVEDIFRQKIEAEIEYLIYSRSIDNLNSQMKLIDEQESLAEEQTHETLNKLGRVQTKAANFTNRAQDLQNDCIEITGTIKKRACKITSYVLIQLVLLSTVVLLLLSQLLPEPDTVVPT

HA-BioID2-RHD3 = biological target: T5, HA-BioID2-RHD3 (UniProt P93042)
T5 sequence: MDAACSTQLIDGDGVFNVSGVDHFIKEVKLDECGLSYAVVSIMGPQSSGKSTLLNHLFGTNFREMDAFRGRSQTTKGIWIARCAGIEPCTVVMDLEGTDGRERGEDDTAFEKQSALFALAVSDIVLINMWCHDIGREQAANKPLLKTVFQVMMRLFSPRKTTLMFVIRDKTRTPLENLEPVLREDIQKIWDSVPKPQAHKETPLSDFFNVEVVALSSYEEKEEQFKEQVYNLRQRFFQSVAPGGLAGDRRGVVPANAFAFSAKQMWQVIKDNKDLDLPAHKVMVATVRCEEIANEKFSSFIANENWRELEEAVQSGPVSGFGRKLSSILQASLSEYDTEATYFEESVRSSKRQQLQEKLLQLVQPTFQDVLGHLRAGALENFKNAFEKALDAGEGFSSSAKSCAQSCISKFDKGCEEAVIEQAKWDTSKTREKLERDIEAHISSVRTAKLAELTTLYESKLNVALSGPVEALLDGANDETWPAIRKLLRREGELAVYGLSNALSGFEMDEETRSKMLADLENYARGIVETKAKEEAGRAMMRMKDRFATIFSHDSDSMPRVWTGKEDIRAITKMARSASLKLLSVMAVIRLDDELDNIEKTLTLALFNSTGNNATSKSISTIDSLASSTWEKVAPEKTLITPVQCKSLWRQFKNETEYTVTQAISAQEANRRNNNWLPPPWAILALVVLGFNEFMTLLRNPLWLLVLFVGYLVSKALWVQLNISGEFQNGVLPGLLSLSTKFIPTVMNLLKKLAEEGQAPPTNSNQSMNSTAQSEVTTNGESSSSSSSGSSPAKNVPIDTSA

B2: PUX5 (protein, UniProt Q7Y175 1-421)
chain: T2 sequence
- binding [1]: binds
- binding [3]: binds
- binding [4]: no binding
- binding (HA-BioID2-RHD3): no binding

B3: PUX4 (protein, UniProt Q8RWU7 1-303)
chain: MSSKDKKPSKPSSSRGGIRTLSDLNRRSGPDSDSDSDGPQEYYTGGEKSGMLVQDPSKKDDVDEIFNQARQLGAVEGPLEPPPSSRSFTGTGRLLSGENVPTGNQQPEPVVHNIVFWSNGFTIDDGPLRKLDDPENASFLESIRKSECPKELEPADRRAPVHVNLMRKEEKCPERQKRRVSFQGVGRTLGGSNEGSGSSSPVAPDSAPIPIQTEPAPSQSLVIDETVPTTSIQLRLADGTRLVAKFNHHHTVNDIRGFIDSSRPGASLNYQLQTMGFPPKPLTDLTQTIEEAGLANSVVLQKF
- binding [1]: binds
- binding [2]: binds
- binding [3]: binds
- binding [4]: no binding
- binding (HA-BioID2-RHD3): no binding

Second part, the binder after the results:

- binding [1]: binds
- binding [2]: binds
- binding [3]: binds
- binding [4]: no binding
- binding (HA-BioID2-RHD3): no binding
B1: UFD1B (protein, UniProt Q9SJV0 1-340)
chain: MVLRFCCHLLTYSVSLLPPITMFFDGYHYHGTTFEQSYRCYPASFIDKPQLESGDKIIMPPSALDRLASLHIDYPMLFELRNAGIERVTHCGVLEFIAEEGMIYMPYWMMQNLLLQEGDIVRVRNVTLPKGTYVKLQPHTTDFLDISNPKAILETALRNYSCLTSGDSIMVPYNNKKYFIDIVETKPANAISIIETDCEVDFAPPLDYKEPERPTAPSAAKGPAKAEEVVDEPEPKFNPFTGSGRRLDGRPLAYEPAPASSSKGKQPVVANGNGQSSVASSSEKATRAQGKLVFGANGNRAPKEAAPKVGAAKETKKEEQEKKDEPKFQAFSGKKYSLRG

- binding [1]: binds
- binding [2]: binds
- binding [3]: binds
- binding [4]: no binding
- binding (HA-BioID2-RHD3): no binding
B4: UFD1C (protein, UniProt Q8W570 1-311)
chain: MFYDGYAYHGTTFEQTYRCYPSSFIDKPQIESGDKIIMPPSALDRLASLQIDYPMLFELRNASTDSFSHCGVLEFIAEEGVIYIPYWMMQNLLLQEGDMVRVRNVTLPKGTYVKLQPHTTDFLDIANPKAILETALRNYSCLTVGDSIMVPYNNKKYFIDIVEAKPSNGISIIETDCEVDFAPPLDYKEPERPVAPAPAKAKEVDVAEAEPKFNPFTGSGRRLDGRPLSYEPQPGAANSNGQSHPVASSSSSGSEKATQQNRGKLVFGSNVERSTKETTKVGAGKDRKQEEEAEKEAKFQAFSGKKYSLRG
